Results taken from patent US20190144543A1 (TAYU HUAXIA BIOTECH MEDICAL GROUP, published 2019).
Results are given in words; binding and its absence hold for the method and conditions named. Some binding calls cover weakened binding; strength is not graded here.

Chains of the proteins cited; added tags and fusions are not shown. Lines headed by an entry give the natural chain unless they say otherwise; changes in a name come on top.
UniProt Q15116: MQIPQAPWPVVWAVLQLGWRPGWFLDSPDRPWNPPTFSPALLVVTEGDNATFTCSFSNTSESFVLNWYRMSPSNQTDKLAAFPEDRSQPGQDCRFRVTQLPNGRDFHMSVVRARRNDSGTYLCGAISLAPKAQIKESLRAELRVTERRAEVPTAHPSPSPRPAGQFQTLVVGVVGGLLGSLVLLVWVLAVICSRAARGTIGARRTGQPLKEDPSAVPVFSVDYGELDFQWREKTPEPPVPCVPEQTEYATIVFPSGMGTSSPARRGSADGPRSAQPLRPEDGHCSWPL

Legend:
hPD-1mIg fusion protein = biological target: T1, hPD-1mIg fusion protein (human; mouse, UniProt Q15116 25-170); assay: blocking assay by flow cytometry: 100 ng hPD1mIg pre-incubated with the antibody, then binding to hPD-L1 on CHO/hB7-H1 cells
T1 construct: extracellular domain; also called hPD-mIg; not shown: CH2-CH3 domain of mouse IgG2a heavy chain (plasmid pmIgG)

[1] = biological target: T2, human PD-1 (hPD-1) expressed on cells (human, UniProt Q15116 25-288); assay: flow cytometry on CHO/hPD-1 cells (FIG. 8)
[2] = biological target: T2, human PD-1 (hPD-1) expressed on cells; assay: flow cytometry on CHO/hPD-1 cells, serially diluted mAbs
[3] = biological target: T2, human PD-1 (hPD-1) expressed on cells; assay: flow cytometry on CHO/hPD-1 cells, serially diluted antibody (0.06 to 2 ng)
[4] = biological target: cynomolgus monkey PD-1 (cPD-1) expressed on cells (cynomolgus monkey) (UniProt B0LAJ3); assay: flow cytometry on CHOK1-cPD-1 cells
[5] = biological target: cynomolgus monkey PD-1 (cPD-1) expressed on cells (cynomolgus monkey) (UniProt B0LAJ3); assay: flow cytometry, FACS binding to CHOK1-cPD-1 cells

Measured: binding

B1: Variant 7 (humanized, VH variant c / VK variant a) (antibody, V domains shown)
VH: EVKLLESGGGLVQPGGSLRLSCAASGFTFSSYTMSWVRQAPGKGLEWVSYISHGGGDTYYPDSVKGRFTISRDNSKNTLYLQMNSLRAEDTAVYYCARHSGYERGYYYVMDYWGKGTTVTVSS
VL: DIVMTQSPDSLAVSLGERATINCKSSESVDYYGFSFLNWFQQKPGQPPKLLIYAASNRESGVPDRFSGSGSGTDFTLTISSLQAEDVAVYYCQQSKEVPWTFGQGTKLEIK
binds: hPD-1mIg fusion protein | [1] | [2] | [3]

B2: Variant 9 (humanized, VH variant c / VK variant c) (antibody, V domains shown)
VH: EVKLLESGGGLVQPGGSLRLSCAASGFTFSSYTMSWVRQAPGKGLEWVSYISHGGGDTYYPDSVKGRFTISRDNSKNTLYLQMNSLRAEDTAVYYCARHSGYERGYYYVMDYWGKGTTVTVSS
VL: DIQLTQSPDSLSVSLGERATINCKASESVDYYGFSFLNWFQQKPGQPPKLLIYAASNRQSGVPDRFSGSGSGTDFTLTISSLQAEDVAVYFCQQSKEVPWTFGQGTKLEIK
binds: hPD-1mIg fusion protein | [1] | [2] | [3]

B3: TY101-4G1 (antibody, V domains shown)
VH: EVQLVESGGGLVQPGGSLRLSCAASGFTFSSYTMSWVRQAPGKGLEWVSYISHGGGDTYYADSVKGRFTISRDNSKNTLYLQMNSLRAEDTAVYYCARHSGYERGYYYVMDYWGQGTLVTVSS
VL: DIQLTQSPDSLSVSLGERATINCKASESVDYYGFSFLNWFQQKPGQPPKLLIYAASNRQSGVPDRFSGSGSGTDFTLTISSLQAEDVAVYFCQQSKEVPWTFGQGTKLEIKR
notes: TY101 is Variant 3 (VH a, VK c); isotype control is hIgG4; also called TY101 clone TY101-4G1
binds: [4] | [5]

B4: TY101-04-T3-05 (antibody, V domains shown)
VH: EVQLVESGGGLVQPGGSLRLSCAASGFTFSSYTMSWVRQAPGKGLEWVSYISHGGGDTYYADSVKGRFTISRDNSKNTLYLQMNSLRAEDTAVYYCARHSGYERGYYYVMDYWGQGTLVTVSS
VL: DIQLTQSPDSLSVSLGERATINCKASESVDYYGFSFLNWFQQKPGQPPKLLIYAASNRQSGVPDRFSGSGSGTDFTLTISSLQAEDVAVYFCQQSKEVPWTFGQGTKLEIKR
notes: TY101 is Variant 3 (VH a, VK c); isotype control is hIgG4; also called TY101 clone TY101-04-T3-05
binds: [4] | [5]

B5: Variant 8 (humanized, VH variant c / VK variant b) (antibody, V domains shown)
VH: EVKLLESGGGLVQPGGSLRLSCAASGFTFSSYTMSWVRQAPGKGLEWVSYISHGGGDTYYPDSVKGRFTISRDNSKNTLYLQMNSLRAEDTAVYYCARHSGYERGYYYVMDYWGKGTTVTVSS
VL: DIVMTQSPDSLAVSLGERATINCKASESVDYYGFSFLNWFQQKPGQPPKLLIYAASNRESGVPDRFSGSGSGTDFTLTISSLQAEDVAVYYCQQSKEVPWTFGQGTKLEIK
binds: hPD-1mIg fusion protein | [1] | [2] | [3]

B6: TY101-01-09 (antibody, V domains shown)
VH: EVQLVESGGGLVQPGGSLRLSCAASGFTFSSYTMSWVRQAPGKGLEWVSYISHGGGDTYYADSVKGRFTISRDNSKNTLYLQMNSLRAEDTAVYYCARHSGYERGYYYVMDYWGQGTLVTVSS
VL: DIQLTQSPDSLSVSLGERATINCKASESVDYYGFSFLNWFQQKPGQPPKLLIYAASNRQSGVPDRFSGSGSGTDFTLTISSLQAEDVAVYFCQQSKEVPWTFGQGTKLEIKR
notes: TY101 is Variant 3 (VH a, VK c); isotype control is hIgG4; also called TY101 clone TY101-01-09
binds: [4] | [5]
